Assay results reported in paper PMC10191551, “Safety, Tolerability, and Pharmacokinetics of Oral Ferric Maltol in Children With Iron Deficiency: Phase 1 Study” (JPGN Reports, 2021).

Assay: Phase 1 study: safety and tolerability (adverse events, vital signs, ECG, laboratory tests, compliance) of oral ferric maltol

## Cc1occc(=O)c1[O-].Cc1occc(=O)c1[O-].Cc1occc(=O)c1[O-].[Fe+3] [Ferric maltol]
7.8 mg dose group
  Mean study drug compliance: 98%
16.6 mg dose group
  Mean study drug compliance: 86%
30 mg dose group
  Mean study drug compliance: 98%
